No constants are given. Whether binding was seen depends on the method and setting. Binding seen in cells or lysates may run through a third protein. Here binding means that the protein was enriched with, or labelled near, the bait; the list need not be complete.

Chains of the proteins cited; added tags and fusions are not shown.
UniProt Q960X4: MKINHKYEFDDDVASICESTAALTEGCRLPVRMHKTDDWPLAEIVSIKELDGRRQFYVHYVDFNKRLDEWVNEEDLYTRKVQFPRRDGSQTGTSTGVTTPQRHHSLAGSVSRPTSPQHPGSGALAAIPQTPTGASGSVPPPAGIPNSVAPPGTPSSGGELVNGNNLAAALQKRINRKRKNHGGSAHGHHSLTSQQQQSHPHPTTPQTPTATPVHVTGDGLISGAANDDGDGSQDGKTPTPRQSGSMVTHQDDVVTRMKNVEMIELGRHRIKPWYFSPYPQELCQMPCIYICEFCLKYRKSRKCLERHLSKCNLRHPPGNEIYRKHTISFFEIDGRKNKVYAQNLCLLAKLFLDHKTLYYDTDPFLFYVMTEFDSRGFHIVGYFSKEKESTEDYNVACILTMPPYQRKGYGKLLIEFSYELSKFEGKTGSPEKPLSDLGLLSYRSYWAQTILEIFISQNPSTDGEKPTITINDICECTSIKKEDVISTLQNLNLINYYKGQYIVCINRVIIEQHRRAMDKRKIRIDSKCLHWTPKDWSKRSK

This assay concerns the target dTip60 (KAT5) with N-terminal TwinStrep tag (Drosophila melanogaster) (UniProt Q960X4). As to the kind of experiment: affinity purification with mass spectrometry; three subunits co-expressed in Sf21; lysate (300 mM KCl, RNase A, benzonase) loaded on StrepTrap Streptactin column, washed with 300 mM KCl, eluted with biotin; subunits verified by mass spectrometry.

B1: Ing3 (protein, UniProt Q9VWS0 1-686)
chain: MLYLEDYLEMIEHLPQELRDRFTEMRELDLAVQNNMDSLDKKAHMFFKQCKRDELQHESMDTEFHSLRGEYFKVMEDADEKVAIATQIHELVERYLRRLDSELFKFKCELEADNNGITEILERRSLELDGNSTAATALLLSMNQKENRYYGASSANTMVNSSTGHATGAATGSSGIALVSGAAGTGGALSSISTAQLGSSQRHRKLEKRRETICTVPVQEKRANLNHSLPVVGSGSTTAAAASSSSATTAAAAASLASATTAQTHVSNHIGSIAATHLTLPVAMGVAGGSSSLASSSLATGTGSLVRQLPTNLTHTVLSTSGGATAAAAAGGNSTSVVAAGTAHGHAHVSGHSAAGATVTYNLQQLGGGAAASSAIAAAASQAIVATQQMQQGRRTASLKASYEAIHGTAGTTTDFWTQAGQGGLQQSTAGSVTVAAGTALATGAAGGSSTGSHHSHHSQSHHGGHGHGHGHGHGHGHGHGHHSSSGHGGGHSSHHQEKKQKKKLTTALTLPTVQPTAGSSSGNSIGSSSSISLESVNKLTTSAALAAASATTTYMSVGGQALLAMTPGGGGGGNLAESSAEGVPAGMIAMNLPTTTVTPGSSLTIGENGLVVEQTNEGEWSYDPNEPRYCTCNQVSYGDMVACDNDACPYEWFHYPCVGITQPPKGKWYCPKCTASMRRRGNRKN
With B1, the binding entry is listed as “binds”.

(Values after paper PMC11109948.)
